The subject of the assay is HEK293A TEAD-LUC reporter. The assay can be described thus: TEAD-luciferase reporter activity (YAP activation), robust Z score vs plate; higher = stronger YAP/TEAD activation. Particulars: 24 h. (In general: In a reporter assay the amount or activity of a reporter protein is the signal.)

Structures can show the parent of a compound that is named as a salt. This is one part of the list. This data set is noisy: repeats of one test often differ as much as different tests do.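 The human kidney-derived cells carry a stably integrated construct of eight TEAD-binding elements driving luciferase, read by luminescence in a drug-repurposing library screen. A compound counts as a hit when its signal is more than five robust Z scores above the plate mean.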

With `CCc1cccc2sc(Sc3ccc4c(c3)CC[C@H]3N(C)C(=O)CC[C@]43C)nc12` [Izonsteride], the TEAD-luciferase reporter activity is inactive: -1.03 (compound concentration: 200 nM), inactive: 1.32 (compound concentration: 2 uM) and inactive: 2.1 (compound concentration: 10 uM).

In the case of `NCC(=O)NC1CC2(CCN(C(=O)Cc3ccc(O)cc3)CC2)c2ccccc21` (stereo unspecified), the TEAD-luciferase reporter activity (compound concentration: 200 nM) was inactive: -1.66 and the TEAD-luciferase reporter activity (compound concentration: 10 uM) is inactive: 0.528.

For the compound `CCN(Cc1ccc(OC)c(OC2CCCC2)c1)c1ncnc2[nH]c(C(C)C)nc12`, the TEAD-luciferase reporter activity runs as follows: (compound concentration: 200 nM) inactive: -0.719; (compound concentration: 2 uM) inactive: 0.73; (compound concentration: 10 uM) inactive: 0.572.

Turning to `CCN(CC)C(=O)COC(=O)/C=C/C(=O)OC`, the TEAD-luciferase reporter activity runs as follows: (compound concentration: 200 nM) inactive: 0.665; (compound concentration: 2 uM) inactive: 0.162; (compound concentration: 10 uM) inactive: -1.34.

As to `O=C(O)[C@@H]1C[C@@H](O)CN1` [L-Hydroxyproline], the TEAD-luciferase reporter activity is, setting by setting: (compound concentration: 200 nM) inactive: -1.84; (compound concentration: 2 uM) inactive: -2.57; (compound concentration: 10 uM) inactive: -1.3.

With `Clc1ccc2nsnc2c1NC1=NCCN1`, the TEAD-luciferase reporter activity reads like this: (compound concentration: 200 nM) inactive: -0.441; (compound concentration: 10 uM) inactive: -1.35.

In the case of `Clc1ccc2nsnc2c1NC1=NCCN1` [tizanidine hydrochloride], the TEAD-luciferase reporter activity (compound concentration: 2 uM) is inactive: 0.107.

For `CC1(C)CCSc2ccc(C#Cc3ccc(C(=O)O)cn3)cc21` [Tazarotenic acid], the TEAD-luciferase reporter activity is, setting by setting: (compound concentration: 200 nM) inactive: -0.86; (compound concentration: 2 uM) inactive: 2.98; (compound concentration: 10 uM) inactive: -2.89.

Turning to `Cc1cccc(Nc2ccccc2C(=O)O)c1C` [mefenamic acid, vaginal], the TEAD-luciferase reporter activity (compound concentration: 2 uM) is inactive: -1.34.

`Cc1cccc(Nc2ccccc2C(=O)O)c1C`: the TEAD-luciferase reporter activity is inactive: -0.144 (compound concentration: 200 nM) and inactive: 1.08 (compound concentration: 10 uM).

Consider `Nc1nc(O)nc2c1ncn2[C@@H]1O[C@H](CO)[C@@H](O)[C@H]1O`, for which the TEAD-luciferase reporter activity is inactive: -1.22 (compound concentration: 200 nM), inactive: -1.47 (compound concentration: 2 uM) and inactive: 0.679 (compound concentration: 10 uM).

In the case of `CCOC(=O)C1=C(C)N(CCN2CCOCC2)C(C)=C(C(=O)OCC)C1c1ccccc1C(F)(F)F` [flordipine], the TEAD-luciferase reporter activity by setting is: (compound concentration: 200 nM) inactive: -0.965; (compound concentration: 2 uM) inactive: 0.41; (compound concentration: 10 uM) inactive: -1.11.

For `Clc1ccc(CO/N=C(\Cn2ccnc2)c2ccc(Cl)cc2Cl)c(Cl)c1` [oxiconazole], the TEAD-luciferase reporter activity (compound concentration: 2 uM) is inactive: 0.624.

Regarding `Clc1ccc(CO/N=C(\Cn2ccnc2)c2ccc(Cl)cc2Cl)c(Cl)c1`, the TEAD-luciferase reporter activity reads like this: (compound concentration: 200 nM) inactive: 0.621; (compound concentration: 10 uM) inactive: 2.32.

Turning to `CCCCC[C@H](O)/C=C/[C@H]1[C@H](O)CC(=O)[C@@H]1CCCCCCCO`, the TEAD-luciferase reporter activity by setting is: (compound concentration: 200 nM) inactive: -0.974; (compound concentration: 2 uM) inactive: -0.665; (compound concentration: 10 uM) inactive: -0.702.

For `O=c1oc2c(O)c(O)cc3c(=O)oc4c(O)c(O)cc1c4c23`, the TEAD-luciferase reporter activity by setting is: (compound concentration: 200 nM) inactive: 0.756; (compound concentration: 2 uM) inactive: -2.03; (compound concentration: 10 uM) inactive: -1.29.

In the case of `O=C(O)c1cc(O)c2c3nc4ccccc4oc-3cc(=O)c2n1` [Pyrphenoxone], the TEAD-luciferase reporter activity by setting is: (compound concentration: 200 nM) inactive: 0.553; (compound concentration: 2 uM) inactive: -1.05; (compound concentration: 10 uM) inactive: 1.92.

On to `CNCC(O)c1ccc(O)c(O)c1` (racemic) [(+/-)-Epinephrine hydrochloride329-63-5], for which the TEAD-luciferase reporter activity is, setting by setting: (compound concentration: 200 nM) inactive: -2.21; (compound concentration: 10 uM) inactive: -0.455.

`CC1(C2OCCO2)C=C(N2CCCC2=O)c2cc([N+](=O)[O-])ccc2O1` (stereo unspecified): the TEAD-luciferase reporter activity by setting is: (compound concentration: 200 nM) inactive: -0.314; (compound concentration: 2 uM) inactive: -0.812; (compound concentration: 10 uM) inactive: 0.864.

For the compound `NC[C@@](O)(c1ccc(Cl)cc1)c1ccc(-c2cn[nH]c2)cc1`, the TEAD-luciferase reporter activity runs as follows: (compound concentration: 200 nM) inactive: 1.97; (compound concentration: 2 uM) active: 12.6; (compound concentration: 10 uM) active: 6.42.

As to `CC1(c2ccncc2)CCC(=O)NC1=O` (stereo unspecified), the TEAD-luciferase reporter activity is inactive: -0.175 (compound concentration: 200 nM), inactive: -2.04 (compound concentration: 2 uM) and inactive: 4.46 (compound concentration: 10 uM).

Take `COc1ccccc1OCC1CNC(=O)O1` (stereo unspecified): the TEAD-luciferase reporter activity by setting is: (compound concentration: 200 nM) inactive: -0.883; (compound concentration: 2 uM) inactive: -1.35; (compound concentration: 10 uM) inactive: -0.429.

On to `CC(=O)c1cc(C(C)(C)C)c(O)c(C(C)(C)C)c1`, for which the TEAD-luciferase reporter activity reads like this: (compound concentration: 200 nM) inactive: 0.166; (compound concentration: 2 uM) inactive: -0.247; (compound concentration: 10 uM) inactive: 2.56.

As for `O=C(O)CC(NS(=O)(=O)c1ccc2ccccc2c1)C(=O)NCCc1ccccc1` (stereo unspecified), the TEAD-luciferase reporter activity (compound concentration: 200 nM) was inactive: -1.4, the TEAD-luciferase reporter activity (compound concentration: 2 uM) is inactive: 0.392 and the TEAD-luciferase reporter activity (compound concentration: 10 uM) is inactive: 1.08.

In the case of `c1ccc(-c2nc(SCc3cccnc3)[nH]c2-c2ccccc2)cc1`, the TEAD-luciferase reporter activity reads like this: (compound concentration: 200 nM) inactive: -0.371; (compound concentration: 2 uM) inactive: -1.16; (compound concentration: 10 uM) inactive: 0.56.

`Cc1ccc(/C=C/C(=O)NC[C@@H]2CN(c3ccc(N4CCOCC4)c(F)c3)C(=O)O2)cc1`: the TEAD-luciferase reporter activity (compound concentration: 200 nM) was inactive: 0.549, the TEAD-luciferase reporter activity (compound concentration: 2 uM) is inactive: -1.28 and the TEAD-luciferase reporter activity (compound concentration: 10 uM) is inactive: -0.212.

As for `N=C(N)Nc1ccc(C(=O)NCCC[C@H]2C(=O)N(CC(=O)O)CCN2C(=O)CNC(=O)c2ccc(NC(=N)N)cc2)cc1`, the TEAD-luciferase reporter activity was inactive: -1.77 (compound concentration: 200 nM), inactive: -0.904 (compound concentration: 2 uM) and inactive: 2.79 (compound concentration: 10 uM).

With `CCC(=O)[C@@]12OC(C)(C)O[C@@H]1C[C@H]1[C@@H]3CCC4=CC(=O)CC[C@]4(C)[C@H]3CC[C@@]12C`, the TEAD-luciferase reporter activity by setting is: (compound concentration: 200 nM) inactive: -0.569; (compound concentration: 2 uM) inactive: -0.469; (compound concentration: 10 uM) inactive: 2.38.

As to `CCOC(=O)N(Cc1ccccc1)C1CC1`, the TEAD-luciferase reporter activity by setting is: (compound concentration: 200 nM) inactive: -0.875; (compound concentration: 2 uM) inactive: 1.13; (compound concentration: 10 uM) inactive: 4.1.

Source of the values: the supplement of paper PMC10735217.
